Target: SARS-CoV-2 spike RBD-ACE2 interaction (Homo sapiens, UniProt Q9BYF1)
Type: binding

Sequences of proteins named here, by UniProt entry; tags and fusion partners are left off. Residues count along the entry.
UniProt Q9BYF1, 18-740: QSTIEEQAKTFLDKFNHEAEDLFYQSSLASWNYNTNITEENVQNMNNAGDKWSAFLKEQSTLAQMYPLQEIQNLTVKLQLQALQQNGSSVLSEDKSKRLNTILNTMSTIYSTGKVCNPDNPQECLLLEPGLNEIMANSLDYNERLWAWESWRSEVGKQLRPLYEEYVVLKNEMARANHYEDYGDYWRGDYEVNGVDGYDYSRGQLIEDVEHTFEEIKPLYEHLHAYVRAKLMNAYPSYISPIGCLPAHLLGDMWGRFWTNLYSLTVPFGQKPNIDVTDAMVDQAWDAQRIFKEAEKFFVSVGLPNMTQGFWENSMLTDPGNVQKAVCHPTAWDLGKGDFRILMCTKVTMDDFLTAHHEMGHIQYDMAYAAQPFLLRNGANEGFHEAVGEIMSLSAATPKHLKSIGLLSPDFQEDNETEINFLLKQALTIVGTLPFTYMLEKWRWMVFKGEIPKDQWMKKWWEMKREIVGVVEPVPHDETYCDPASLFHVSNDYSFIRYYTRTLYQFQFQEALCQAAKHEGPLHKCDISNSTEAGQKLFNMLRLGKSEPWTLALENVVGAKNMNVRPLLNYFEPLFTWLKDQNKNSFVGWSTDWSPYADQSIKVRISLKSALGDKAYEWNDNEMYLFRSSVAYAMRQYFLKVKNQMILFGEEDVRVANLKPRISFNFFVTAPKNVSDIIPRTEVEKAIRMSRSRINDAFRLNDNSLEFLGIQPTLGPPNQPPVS

## Clc1ccc(CO/N=C(\Cn2ccnc2)c2ccc(Cl)cc2Cl)c(Cl)c1 [oxiconazole nitrate]
  reduction in bioreporter signal, method B: −4%
